The supplement of paper PMC8612539
In brackets after ≈: the same amount, converted by molar mass. This continues a long series; more values of the same kind are listed elsewhere.

System: Escherichia coli
Test: minimum inhibitory concentration (MIC)
Experimental: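 Broth microdilution MIC (Sensititre BOPO7F bovine plate, CLSI methods) of 19 antimicrobials against field isolates of P. multocida, M. haemolytica, H. somni (deep nasopharyngeal swabs) and E. coli, Enterococcus spp. (rectal swabs) from weaned dairy heifers. Incubation 16-24 h at 35 C. MIC is the lowest concentration preventing visible growth. Values with <= or > lie at the tested range limits. Trimethoprim-sulfamethoxazole is given as the trimethoprim component of a 1:19 mixture.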

CCN1CCN(c2cc3c(cc2F)c(=O)c(C(=O)O)cn3C2CC2)CC1 [Enrofloxacin]
Settings | minimum inhibitory concentration [mg/L]
isolate (source animal id): 1 | ≤ 0.12
isolate (source animal id): 2 | ≤ 0.12
isolate (source animal id): 3 | ≤ 0.12
isolate (source animal id): 4 | ≤ 0.12
isolate (source animal id): 5 | ≤ 0.12
isolate (source animal id): 6 | ≤ 0.12
isolate (source animal id): 7 | ≤ 0.12
isolate (source animal id): 17 | 0.5 (≈ 1.39 µM)
isolate (source animal id): 18 | ≤ 0.12
isolate (source animal id): 19 | ≤ 0.12
isolate (source animal id): 20 | ≤ 0.12
isolate (source animal id): 21 | ≤ 0.12
isolate (source animal id): 22 | ≤ 0.12
isolate (source animal id): 23 | ≤ 0.12
isolate (source animal id): 24 | ≤ 0.12
isolate (source animal id): 25 | 0.5 (≈ 1.39 µM)
isolate (source animal id): 26 | ≤ 0.12
isolate (source animal id): 27 | 1 (≈ 2.78 µM)
isolate (source animal id): 28 | ≤ 0.12
isolate (source animal id): 29 | 0.5 (≈ 1.39 µM)
isolate (source animal id): 30 | ≤ 0.12
isolate (source animal id): 31 | ≤ 0.12
isolate (source animal id): 32 | > 2
isolate (source animal id): 33 | > 2
isolate (source animal id): 34 | ≤ 0.12
isolate (source animal id): 35 | > 2
isolate (source animal id): 36 | ≤ 0.12
isolate (source animal id): 37 | ≤ 0.12
isolate (source animal id): 38 | 0.5 (≈ 1.39 µM)
isolate (source animal id): 39 | > 2
isolate (source animal id): 40 | ≤ 0.12
isolate (source animal id): 41 | ≤ 0.12
isolate (source animal id): 42 | ≤ 0.12
isolate (source animal id): 43 | > 2
isolate (source animal id): 44 | ≤ 0.12
isolate (source animal id): 45 | ≤ 0.12
isolate (source animal id): 46 | ≤ 0.12
isolate (source animal id): 47 | ≤ 0.12
isolate (source animal id): 48 | ≤ 0.12
isolate (source animal id): 49 | ≤ 0.12
isolate (source animal id): 50 | ≤ 0.12
isolate (source animal id): 51 | 0.25 (≈ 0.696 µM)
isolate (source animal id): 52 | ≤ 0.12
isolate (source animal id): 53 | ≤ 0.12
isolate (source animal id): 54 | ≤ 0.12
isolate (source animal id): 55 | ≤ 0.12
isolate (source animal id): 56 | ≤ 0.12
isolate (source animal id): 57 | > 2
isolate (source animal id): 58 | ≤ 0.12
isolate (source animal id): 59 | 0.5 (≈ 1.39 µM)
isolate (source animal id): 60 | ≤ 0.12
isolate (source animal id): 61 | 0.25 (≈ 0.696 µM)
isolate (source animal id): 62 | ≤ 0.12
isolate (source animal id): 63 | ≤ 0.12
isolate (source animal id): 64 | ≤ 0.12
isolate (source animal id): 65 | > 2
isolate (source animal id): 66 | ≤ 0.12
isolate (source animal id): 67 | 1 (≈ 2.78 µM)
isolate (source animal id): 68 | ≤ 0.12
isolate (source animal id): 69 | ≤ 0.12
isolate (source animal id): 70 | ≤ 0.12
isolate (source animal id): 71 | ≤ 0.12
isolate (source animal id): 72 | ≤ 0.12
isolate (source animal id): 73 | ≤ 0.12
isolate (source animal id): 74 | ≤ 0.12
isolate (source animal id): 75 | ≤ 0.12
isolate (source animal id): 76 | ≤ 0.12
isolate (source animal id): 77 | ≤ 0.12
isolate (source animal id): 78 | ≤ 0.12
isolate (source animal id): 79 | ≤ 0.12
isolate (source animal id): 80 | ≤ 0.12
isolate (source animal id): 81 | ≤ 0.12
isolate (source animal id): 82 | ≤ 0.12
isolate (source animal id): 83 | ≤ 0.12
isolate (source animal id): 84 | ≤ 0.12
isolate (source animal id): 85 | ≤ 0.12
isolate (source animal id): 86 | > 2
isolate (source animal id): 87 | ≤ 0.12
isolate (source animal id): 88 | ≤ 0.12
isolate (source animal id): 89 | ≤ 0.12
isolate (source animal id): 90 | ≤ 0.12
isolate (source animal id): 91 | ≤ 0.12
isolate (source animal id): 92 | 1 (≈ 2.78 µM)
isolate (source animal id): 93 | 1 (≈ 2.78 µM)
isolate (source animal id): 94 | > 2
isolate (source animal id): 95 | 1 (≈ 2.78 µM)
isolate (source animal id): 96 | ≤ 0.12
isolate (source animal id): 97 | ≤ 0.12
isolate (source animal id): 189 | 1 (≈ 2.78 µM)
isolate (source animal id): 190 | ≤ 0.12
isolate (source animal id): 191 | ≤ 0.12
isolate (source animal id): 192 | ≤ 0.12
isolate (source animal id): 193 | ≤ 0.12
isolate (source animal id): 194 | ≤ 0.12
isolate (source animal id): 195 | ≤ 0.12
isolate (source animal id): 196 | ≤ 0.12
isolate (source animal id): 197 | ≤ 0.12
isolate (source animal id): 198 | 0.25 (≈ 0.696 µM)
isolate (source animal id): 199 | 0.5 (≈ 1.39 µM)
isolate (source animal id): 200 | 0.25 (≈ 0.696 µM)
isolate (source animal id): 201 | ≤ 0.12
isolate (source animal id): 202 | ≤ 0.12
isolate (source animal id): 203 | ≤ 0.12
isolate (source animal id): 204 | ≤ 0.12
isolate (source animal id): 205 | ≤ 0.12
isolate (source animal id): 206 | ≤ 0.12
isolate (source animal id): 207 | ≤ 0.12
isolate (source animal id): 208 | ≤ 0.12
isolate (source animal id): 209 | ≤ 0.12
isolate (source animal id): 210 | ≤ 0.12
isolate (source animal id): 211 | ≤ 0.12
isolate (source animal id): 212 | 1 (≈ 2.78 µM)
isolate (source animal id): 213 | ≤ 0.12
isolate (source animal id): 214 | ≤ 0.12
isolate (source animal id): 215 | ≤ 0.12
isolate (source animal id): 216 | ≤ 0.12
isolate (source animal id): 217 | ≤ 0.12
isolate (source animal id): 218 | ≤ 0.12
isolate (source animal id): 219 | 0.25 (≈ 0.696 µM)
isolate (source animal id): 220 | ≤ 0.12
isolate (source animal id): 221 | ≤ 0.12
isolate (source animal id): 222 | ≤ 0.12
isolate (source animal id): 223 | 0.5 (≈ 1.39 µM)
isolate (source animal id): 224 | ≤ 0.12
isolate (source animal id): 225 | ≤ 0.12
isolate (source animal id): 226 | > 2
isolate (source animal id): 227 | 1 (≈ 2.78 µM)
isolate (source animal id): 228 | ≤ 0.12
isolate (source animal id): 229 | > 2
isolate (source animal id): 230 | 1 (≈ 2.78 µM)
isolate (source animal id): 231 | 0.5 (≈ 1.39 µM)
isolate (source animal id): 232 | 0.25 (≈ 0.696 µM)
isolate (source animal id): 233 | ≤ 0.12
isolate (source animal id): 234 | ≤ 0.12
isolate (source animal id): 235 | 0.25 (≈ 0.696 µM)
isolate (source animal id): 236 | ≤ 0.12
isolate (source animal id): 237 | ≤ 0.12
isolate (source animal id): 238 | ≤ 0.12
isolate (source animal id): 239 | ≤ 0.12
isolate (source animal id): 240 | ≤ 0.12
isolate (source animal id): 241 | ≤ 0.12
isolate (source animal id): 242 | ≤ 0.12
isolate (source animal id): 243 | ≤ 0.12
isolate (source animal id): 244 | ≤ 0.12
isolate (source animal id): 245 | ≤ 0.12
isolate (source animal id): 246 | > 2
isolate (source animal id): 247 | ≤ 0.12
isolate (source animal id): 248 | ≤ 0.12
isolate (source animal id): 249 | ≤ 0.12
isolate (source animal id): 250 | ≤ 0.12
isolate (source animal id): 251 | ≤ 0.12
isolate (source animal id): 252 | ≤ 0.12
isolate (source animal id): 253 | ≤ 0.12
isolate (source animal id): 254 | ≤ 0.12
isolate (source animal id): 255 | ≤ 0.12
isolate (source animal id): 256 | ≤ 0.12
isolate (source animal id): 257 | ≤ 0.12
isolate (source animal id): 258 | ≤ 0.12
isolate (source animal id): 259 | > 2
isolate (source animal id): 260 | ≤ 0.12
isolate (source animal id): 261 | ≤ 0.12
isolate (source animal id): 262 | 1 (≈ 2.78 µM)
isolate (source animal id): 263 | ≤ 0.12
isolate (source animal id): 264 | ≤ 0.12
isolate (source animal id): 265 | ≤ 0.12
isolate (source animal id): 266 | ≤ 0.12
isolate (source animal id): 267 | ≤ 0.12
isolate (source animal id): 268 | ≤ 0.12
isolate (source animal id): 269 | ≤ 0.12
isolate (source animal id): 270 | ≤ 0.12
isolate (source animal id): 271 | ≤ 0.12
isolate (source animal id): 272 | ≤ 0.12
isolate (source animal id): 273 | ≤ 0.12
isolate (source animal id): 274 | > 2
isolate (source animal id): 275 | 0.25 (≈ 0.696 µM)
isolate (source animal id): 276 | ≤ 0.12
isolate (source animal id): 277 | ≤ 0.12
isolate (source animal id): 278 | ≤ 0.12
isolate (source animal id): 279 | ≤ 0.12
isolate (source animal id): 280 | ≤ 0.12
isolate (source animal id): 281 | 0.25 (≈ 0.696 µM)
isolate (source animal id): 282 | ≤ 0.12
isolate (source animal id): 283 | ≤ 0.12
isolate (source animal id): 284 | ≤ 0.12
isolate (source animal id): 285 | ≤ 0.12
isolate (source animal id): 286 | ≤ 0.12
isolate (source animal id): 287 | ≤ 0.12
isolate (source animal id): 288 | ≤ 0.12
isolate (source animal id): 289 | ≤ 0.12
isolate (source animal id): 290 | ≤ 0.12
isolate (source animal id): 291 | ≤ 0.12
isolate (source animal id): 292 | ≤ 0.12
isolate (source animal id): 293 | ≤ 0.12
isolate (source animal id): 294 | ≤ 0.12
isolate (source animal id): 295 | 0.25 (≈ 0.696 µM)
isolate (source animal id): 296 | ≤ 0.12
isolate (source animal id): 297 | ≤ 0.12
isolate (source animal id): 298 | ≤ 0.12
isolate (source animal id): 299 | ≤ 0.12
isolate (source animal id): 300 | ≤ 0.12
isolate (source animal id): 301 | ≤ 0.12
isolate (source animal id): 302 | ≤ 0.12
isolate (source animal id): 303 | ≤ 0.12
isolate (source animal id): 304 | ≤ 0.12
isolate (source animal id): 305 | ≤ 0.12
isolate (source animal id): 306 | ≤ 0.12
isolate (source animal id): 307 | ≤ 0.12
isolate (source animal id): 308 | ≤ 0.12
isolate (source animal id): 309 | ≤ 0.12
isolate (source animal id): 310 | ≤ 0.12
isolate (source animal id): 311 | ≤ 0.12
isolate (source animal id): 312 | ≤ 0.12
isolate (source animal id): 313 | ≤ 0.12
isolate (source animal id): 314 | ≤ 0.12
isolate (source animal id): 315 | 0.5 (≈ 1.39 µM)
isolate (source animal id): 316 | ≤ 0.12
isolate (source animal id): 317 | 0.25 (≈ 0.696 µM)
isolate (source animal id): 318 | ≤ 0.12
isolate (source animal id): 319 | ≤ 0.12
isolate (source animal id): 320 | ≤ 0.12
isolate (source animal id): 321 | ≤ 0.12
isolate (source animal id): 322 | ≤ 0.12
isolate (source animal id): 323 | ≤ 0.12
isolate (source animal id): 324 | ≤ 0.12
isolate (source animal id): 325 | ≤ 0.12
isolate (source animal id): 326 | ≤ 0.12
isolate (source animal id): 327 | ≤ 0.12
isolate (source animal id): 328 | ≤ 0.12
isolate (source animal id): 329 | ≤ 0.12
isolate (source animal id): 330 | ≤ 0.12
isolate (source animal id): 331 | 1 (≈ 2.78 µM)
isolate (source animal id): 332 | ≤ 0.12
isolate (source animal id): 333 | ≤ 0.12
isolate (source animal id): 334 | ≤ 0.12
isolate (source animal id): 335 | ≤ 0.12
isolate (source animal id): 336 | ≤ 0.12
isolate (source animal id): 337 | 1 (≈ 2.78 µM)
isolate (source animal id): 338 | ≤ 0.12
isolate (source animal id): 339 | ≤ 0.12
isolate (source animal id): 340 | ≤ 0.12
isolate (source animal id): 341 | ≤ 0.12
